This test can be described thus: qHTS Assay to Find Inhibitors of Chronic Active B-Cell Receptor Signaling. As to conditions: ABC-DLBCL IkBa-CBG/CBR reporter, luminescence ratio (green luciferase fused to IkBa over red control in TMD8 lymphoma cells), 4 h. In outline:
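Compounds up to 46 uM were incubated four hours with TMD8 cells whose green CBG68 luciferase is fused to IkappaBalpha; red CBR luminescence normalised the signal, and concentration-effect curves were fitted to fusion, red and ratio data.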
(In general: In qHTS, concentration-response curves come from the screen itself.)

The mark [1] stands for this setting: measured here: CBR red luminescence, cell number.
[2] abbreviates: measured here: IkBa-CBG green luminescence.

In general, AC50 refers to the concentration giving half of the maximal activity seen.

Some of the results follow. These are further read-outs of the screen, such as a control signal, another cell line or another target. No call is given for them. Compounds called inactive in the main read-out are mostly missing here. Potencies come from curve fits of mixed quality, noted in brackets.

Regarding `O=C(NCCC1CCCCN1S(=O)(=O)c1cccs1)C(=O)Nc1ccccc1` (centres undefined), the AC50 runs as follows: under setting [1], 9.2 µM [falling, partial curve]; under setting [2], 3.26 µM [rising, full curve, poor fit].
In the case of `O=C(O)/C=C\C(=O)NC1CCCCC1`, under setting [1], the AC50 was 25.9 µM [rising, single point].
As for `O=[N+]([O-])c1ccc(Sc2ncccn2)c([N+](=O)[O-])c1`, the AC50 under setting [2] is 12.6 µM [rising, partial curve, poor fit].
Turning to `O=c1oc2ccccc2c(N2CCCC2)c1[N+](=O)[O-]`, under setting [1], the AC50 was 11.2 µM [falling, partial curve].
Consider `O=C(NC(=S)Nc1cccc2c(O)cccc12)c1ccccc1[N+](=O)[O-]`, for which the AC50 under setting [1] was 0.562 µM [falling, full curve, poor fit].
Consider `C/C(=N\N=C(/N)SC1CC(=O)N(c2ccc(Cl)cc2)C1=O)c1cccs1` (centres undefined), for which the AC50 under setting [1] is 16.4 µM [falling, single point].
As to `Cc1ccc(-c2cc(C(=O)N3CCCC3)no2)cc1`, the concentration at half-maximal activity (AC50) under setting [1] is 9.2 µM [falling, partial curve].
As to `Cc1cc(S(=O)(=O)N2CCCOC2CNC(=O)C(=O)NCc2ccco2)ccc1F` (centres undefined), the AC50 under setting [1] is 0.112 µM [rising, full curve, poor fit].
`Cc1nc2c(c3c1[nH]c1ccccc13)C(=O)CC(C)(C)C2`: the AC50 reads like this: under setting [1], 14.1 µM [falling, single point]; under setting [2], 3.55 µM [rising, full curve, poor fit].
As for `COc1ccc([C@H]2CC(=O)C=C(c3cccc(C#N)c3)C2)cc1`, the AC50 under setting [1] is 1.46 µM [rising, full curve, poor fit].
For `OC(COc1ccc(F)cc1)CN1CCN(CC(O)COc2ccc(F)cc2)CC1` (centres undefined), the AC50 under setting [1] was 14.1 µM [rising, single point].
`C=C(C)Cn1c(CCCNC(=O)CC)nc2ccccc21`: the AC50 under setting [1] was 13 µM [rising, partial curve].
The same measure, in the same setting: with `CC(=O)N(c1c(C)n(C)n(-c2ccccc2)c1=O)C1(C(=O)NC2CCCCC2)CCCCC1` the figure was 2.59 µM [falling, single point]; with `Cc1ccc(N2C(=O)N(CC(=O)Nc3cccc([N+](=O)[O-])c3C)C(=O)C2C)cc1` (centres undefined), 3.26 µM [rising, full curve, poor fit].
Turning to `O=C(Nc1nnc(C2CCCO2)s1)c1ccc(Br)cc1` (centres undefined), the AC50 under setting [1] is 2.06 µM [falling, full curve].
Turning to `Cc1cc(NC(=O)CCC(=O)N(Cc2ccco2)C(C(=O)NC2CCCC2)c2ccccc2C)no1` (centres undefined), under setting [1], the half-maximal activity concentration (AC50) was 25.9 µM [falling, single point].
The same measure, in the same setting: with `O=C(CSCc1ccc(Cl)cc1)Nc1cccc(C(=O)O)c1` the figure was 11.2 µM [falling, partial curve].
In the case of `O=C(CNC1CCCCC1)Nc1ccc([N+](=O)[O-])cc1C(=O)Nc1ccccc1F`, the AC50 under setting [1] is 22.4 µM [falling, single point].
Consider `CCOC(=O)C1=C(C)OC(N)=C(C#N)C1c1cc(F)ccc1F` (centres undefined), for which, under setting [1], the concentration at half-maximal activity (AC50) was 20.6 µM [falling, single point].
Turning to `CCOC(=O)CNC(=O)CCNS(=O)(=O)c1ccc2c(c1)c(=O)n(C)c(=O)n2C`, the AC50 under setting [1] is 20.6 µM [falling, single point].
Regarding `Cc1ccc(NC(=O)c2cccc(OCc3c(C)noc3C)c2)cc1`, the AC50 under setting [1] is 2.59 µM [falling, full curve].
`O=c1c2ccccc2sc2ccc(Cl)cc12`: the AC50 under setting [1] was 2.06 µM [rising, full curve].
For `Cc1ccc(NC(=O)CN2CCCCCC2)c(Br)c1`, the AC50 under setting [1] was 11.2 µM [falling, partial curve].
`Cc1cc2c(cc(C(=O)OC(C(=O)NCC3CCCO3)C(C)C)n2C)o1` (centres undefined): the AC50 under setting [1] is 4.47 µM [rising, single point].
In the case of `COC(=O)NC1(C(F)(F)F)C(=O)NC(C)=C1C(=O)OC` (centres undefined), the half-maximal activity concentration (AC50) is, setting by setting: under setting [1], 6.51 µM [rising, single point]; under setting [2], 3.66 µM [falling, partial curve, poor fit].
In the case of `COc1ccc(Oc2nc3ccccc3n(C)c2=O)cc1`, the AC50 under setting [1] was 0.058 µM [rising, full curve, poor fit].
For `O=C(O)CN1C(=O)C(=O)N(Cc2ccc(Cl)cc2Cl)C1=O`, the AC50 under setting [1] is 35.5 µM [rising, single point].
Take `Cc1ccc2c(c1)C(=O)N1[C@H]3c4ccccc4OC[C@@H]3[C@H](c3ccccc3)[C@]1(C)C(=O)N2`: the AC50 runs as follows: under setting [1], 29.1 µM [falling, single point]; under setting [2], 2.31 µM [rising, full curve, poor fit].
`O=C(Nc1cccc(Br)c1)c1ccn[nH]1`: under setting [1], the AC50 is 10 µM [falling, partial curve].
As to `O=[N+]([O-])c1ccc(O)c(/C=N/Nc2ccccn2)c1`, the AC50 under setting [1] is 29.1 µM [falling, single point].
With `O=C(CSc1nc(=O)n2cc(Cl)ccc2n1)Nc1cccc2ccccc12`, the AC50 under setting [1] is 8.2 µM [falling, partial curve].
Regarding `NC(=O)[C@@H]1CCCN1C(=O)c1ccc2nc(Cc3ccccc3F)oc2c1`, the AC50 under setting [1] is 35.5 µM [falling, partial curve, poor fit].
For the molecule `CCCCC(CC)C(=O)NCc1ccc(F)cc1` (centres undefined), under setting [1], the AC50 was 0.731 µM [rising, full curve, poor fit].
`C=CCOc1ccccc1CN(C(=O)CCl)c1ccc2c(c1)OCO2`: the AC50 under setting [1] is 14.1 µM [falling, partial curve].
Turning to `CCN1CCN(Cc2ccc(NC(=O)c3cc(NC(=O)c4cc(C)on4)cc(OC)c3)cc2C(F)(F)F)CC1`, the AC50 under setting [1] was 11.2 µM [falling, partial curve].
For the molecule `COc1ccc(N(CC(=O)Nc2ccc(F)c(Cl)c2)S(=O)(=O)c2c(C)noc2C)cc1`, under setting [1], the AC50 is 32.6 µM [falling, single point].
In the case of `Cc1[nH]c2ccc(F)cc2c1CCN(Cc1ccncc1)C(=S)Nc1ccccc1`, the AC50 under setting [1] is 35.5 µM [falling, single point].
For the molecule `O=C(Oc1ccc(Cl)cc1)c1ccc(COC(=O)c2cnccn2)cc1`, under setting [1], the half-maximal activity concentration (AC50) is 29.1 µM [rising, single point].
For the molecule `CC1(C)CC(=O)C(C=NCC2CCCO2)=C(O)C1` (centres undefined), under setting [1], the AC50 was 35.5 µM [rising, single point].
`CCCNC(=O)N1CCC(Cc2ccccc2)CC1`: the AC50 under setting [1] was 11.2 µM [rising, partial curve, poor fit].

Values taken from PubChem BioAssay AID493014 (National Center for Advancing Translational Sciences (NCATS), 2011).
